According to patent US11161888B2, “Method for regulating targeting of Cyclin Y (CCNY) protein to synapses” (KOREA INSTITUTE OF SCIENCE AND TECHNOLOGY, priority 2018, dated 2021):
Some compounds share one wording; it may come from a single statement.

B1: CCNY-C208S-EGFP: cysteine-to-serine mutant of CCNY having low CSS-Palm score (protein)
chain: MGNTTSCCVSSSPKLRRNAHSRLESYRPDTDLSREDTGCNLQHISDRENIDDLNMEFNPSDHPRASTIFLSKSQTDVREKRKSLFINHHPPGQTSRKYSSCSTIFLDDSTVSQPNLKYTIKCVALAIYYHIKNRDPDGRMLLDIFDENLHPLSKSEVPPDYDKHNPEQKQIYRFVRTLFSAAQLTAECAIVTLVYLERLLTYAEIDISPANWKRIVLGAILLASKVWDDQAVWNVDYCQILKDITVEDMNELERQFLELLQFNINVPSSVYAKYYFDLRSLAEANSLSFPLEPLSRERAHKLEAISRLCEDKYKDLRKPMRKRSASADNLILPRWSPAIIS
B2: CCNY-C101S-EGFP: cysteine-to-serine mutant of CCNY having low CSS-Palm score (protein)
chain: MGNTTSCCVSSSPKLRRNAHSRLESYRPDTDLSREDTGCNLQHISDRENIDDLNMEFNPSDHPRASTIFLSKSQTDVREKRKSLFINHHPPGQTSRKYSSSSTIFLDDSTVSQPNLKYTIKCVALAIYYHIKNRDPDGRMLLDIFDENLHPLSKSEVPPDYDKHNPEQKQIYRFVRTLFSAAQLTAECAIVTLVYLERLLTYAEIDICPANWKRIVLGAILLASKVWDDQAVWNVDYCQILKDITVEDMNELERQFLELLQFNINVPSSVYAKYYFDLRSLAEANSLSFPLEPLSRERAHKLEAISRLCEDKYKDLRKPMRKRSASADNLILPRWSPAIIS
B3: CCNY-C39S-EGFP: cysteine-to-serine mutant of CCNY having low CSS-Palm score (protein)
chain: MGNTTSCCVSSSPKLRRNAHSRLESYRPDTDLSREDTGSNLQHISDRENIDDLNMEFNPSDHPRASTIFLSKSQTDVREKRKSLFINHHPPGQTSRKYSSCSTIFLDDSTVSQPNLKYTIKCVALAIYYHIKNRDPDGRMLLDIFDENLHPLSKSEVPPDYDKHNPEQKQIYRFVRTLFSAAQLTAECAIVTLVYLERLLTYAEIDICPANWKRIVLGAILLASKVWDDQAVWNVDYCQILKDITVEDMNELERQFLELLQFNINVPSSVYAKYYFDLRSLAEANSLSFPLEPLSRERAHKLEAISRLCEDKYKDLRKPMRKRSASADNLILPRWSPAIIS
B4: CCNY-C238S-EGFP: cysteine-to-serine mutant of CCNY having low CSS-Palm score (protein)
chain: MGNTTSCCVSSSPKLRRNAHSRLESYRPDTDLSREDTGCNLQHISDRENIDDLNMEFNPSDHPRASTIFLSKSQTDVREKRKSLFINHHPPGQTSRKYSSCSTIFLDDSTVSQPNLKYTIKCVALAIYYHIKNRDPDGRMLLDIFDENLHPLSKSEVPPDYDKHNPEQKQIYRFVRTLFSAAQLTAECAIVTLVYLERLLTYAEIDICPANWKRIVLGAILLASKVWDDQAVWNVDYSQILKDITVEDMNELERQFLELLQFNINVPSSVYAKYYFDLRSLAEANSLSFPLEPLSRERAHKLEAISRLCEDKYKDLRKPMRKRSASADNLILPRWSPAIIS
B5: CCNY-C188S-EGFP: cysteine-to-serine mutant of CCNY having low CSS-Palm score (protein)
chain: MGNTTSCCVSSSPKLRRNAHSRLESYRPDTDLSREDTGCNLQHISDRENIDDLNMEFNPSDHPRASTIFLSKSQTDVREKRKSLFINHHPPGQTSRKYSSCSTIFLDDSTVSQPNLKYTIKCVALAIYYHIKNRDPDGRMLLDIFDENLHPLSKSEVPPDYDKHNPEQKQIYRFVRTLFSAAQLTAESAIVTLVYLERLLTYAEIDICPANWKRIVLGAILLASKVWDDQAVWNVDYCQILKDITVEDMNELERQFLELLQFNINVPSSVYAKYYFDLRSLAEANSLSFPLEPLSRERAHKLEAISRLCEDKYKDLRKPMRKRSASADNLILPRWSPAIIS
B6: CCNY-C309S-EGFP: cysteine-to-serine mutant of CCNY having low CSS-Palm score (protein)
chain: MGNTTSCCVSSSPKLRRNAHSRLESYRPDTDLSREDTGCNLQHISDRENIDDLNMEFNPSDHPRASTIFLSKSQTDVREKRKSLFINHHPPGQTSRKYSSCSTIFLDDSTVSQPNLKYTIKCVALAIYYHIKNRDPDGRMLLDIFDENLHPLSKSEVPPDYDKHNPEQKQIYRFVRTLFSAAQLTAECAIVTLVYLERLLTYAEIDICPANWKRIVLGAILLASKVWDDQAVWNVDYCQILKDITVEDMNELERQFLELLQFNINVPSSVYAKYYFDLRSLAEANSLSFPLEPLSRERAHKLEAISRLSEDKYKDLRKPMRKRSASADNLILPRWSPAIIS
B7: CCNY-C122S-EGFP: cysteine-to-serine mutant of CCNY having low CSS-Palm score (protein)
chain: MGNTTSCCVSSSPKLRRNAHSRLESYRPDTDLSREDTGCNLQHISDRENIDDLNMEFNPSDHPRASTIFLSKSQTDVREKRKSLFINHHPPGQTSRKYSSCSTIFLDDSTVSQPNLKYTIKSVALAIYYHIKNRDPDGRMLLDIFDENLHPLSKSEVPPDYDKHNPEQKQIYRFVRTLFSAAQLTAECAIVTLVYLERLLTYAEIDICPANWKRIVLGAILLASKVWDDQAVWNVDYCQILKDITVEDMNELERQFLELLQFNINVPSSVYAKYYFDLRSLAEANSLSFPLEPLSRERAHKLEAISRLCEDKYKDLRKPMRKRSASADNLILPRWSPAIIS

The molecules below were run on hippocampal neurons (assay: Subcellular localization imaging of EGFP-tagged CCNY constructs in cultured hippocampal neurons). Settings: cysteine-to-serine mutants (FIG. 2C).
Format: cell-based, rat

Cell surface localization of the construct, clear surface localization:
B1
B2
B3
B4
B5
B6
B7
